Results as given in patent US20210214440A1.
These are yes or no findings as the source states them, for the method shown.

Target: Human CD8αα fused to human Fc (human)
Assay: SPR Biacore 8K, mAb captured, single cycle kinetics

binding: no binding (tested: 100 nM)
B1: CD8B362 (antibody, human IgG1, kappa, V domains shown)
VH: EVKLVESGAELVKPGASVKLSCTASGFNIKDTYMHWVKQRPEQGLEWIGRIDPANGHTKFDPKFQGKATITADTSSNTAYLQLSSLTSEDTAVYYCAIRFAYWGQGTLVTVSA
VL: DIQMTQSPSSLSASLGDRVSLTCRASHEISGYLSWLQQKPDGTFKRLIYAASTLDSGVPKRFSGSRSGSDYSLSISSLESEDFADYYCLQYSSYPYTFGSGTKLEMKR
